Measured values reported in PMC9794786.
No constants are given. Whether binding was seen depends on the method and setting. Binding seen in cells or lysates may run through a third protein. Some results given as binding are weak or reduced against the parent protein; the word gives no strength.

By UniProt entry, the sequences of proteins in these tests, tags left out.
UniProt Q9HCK8: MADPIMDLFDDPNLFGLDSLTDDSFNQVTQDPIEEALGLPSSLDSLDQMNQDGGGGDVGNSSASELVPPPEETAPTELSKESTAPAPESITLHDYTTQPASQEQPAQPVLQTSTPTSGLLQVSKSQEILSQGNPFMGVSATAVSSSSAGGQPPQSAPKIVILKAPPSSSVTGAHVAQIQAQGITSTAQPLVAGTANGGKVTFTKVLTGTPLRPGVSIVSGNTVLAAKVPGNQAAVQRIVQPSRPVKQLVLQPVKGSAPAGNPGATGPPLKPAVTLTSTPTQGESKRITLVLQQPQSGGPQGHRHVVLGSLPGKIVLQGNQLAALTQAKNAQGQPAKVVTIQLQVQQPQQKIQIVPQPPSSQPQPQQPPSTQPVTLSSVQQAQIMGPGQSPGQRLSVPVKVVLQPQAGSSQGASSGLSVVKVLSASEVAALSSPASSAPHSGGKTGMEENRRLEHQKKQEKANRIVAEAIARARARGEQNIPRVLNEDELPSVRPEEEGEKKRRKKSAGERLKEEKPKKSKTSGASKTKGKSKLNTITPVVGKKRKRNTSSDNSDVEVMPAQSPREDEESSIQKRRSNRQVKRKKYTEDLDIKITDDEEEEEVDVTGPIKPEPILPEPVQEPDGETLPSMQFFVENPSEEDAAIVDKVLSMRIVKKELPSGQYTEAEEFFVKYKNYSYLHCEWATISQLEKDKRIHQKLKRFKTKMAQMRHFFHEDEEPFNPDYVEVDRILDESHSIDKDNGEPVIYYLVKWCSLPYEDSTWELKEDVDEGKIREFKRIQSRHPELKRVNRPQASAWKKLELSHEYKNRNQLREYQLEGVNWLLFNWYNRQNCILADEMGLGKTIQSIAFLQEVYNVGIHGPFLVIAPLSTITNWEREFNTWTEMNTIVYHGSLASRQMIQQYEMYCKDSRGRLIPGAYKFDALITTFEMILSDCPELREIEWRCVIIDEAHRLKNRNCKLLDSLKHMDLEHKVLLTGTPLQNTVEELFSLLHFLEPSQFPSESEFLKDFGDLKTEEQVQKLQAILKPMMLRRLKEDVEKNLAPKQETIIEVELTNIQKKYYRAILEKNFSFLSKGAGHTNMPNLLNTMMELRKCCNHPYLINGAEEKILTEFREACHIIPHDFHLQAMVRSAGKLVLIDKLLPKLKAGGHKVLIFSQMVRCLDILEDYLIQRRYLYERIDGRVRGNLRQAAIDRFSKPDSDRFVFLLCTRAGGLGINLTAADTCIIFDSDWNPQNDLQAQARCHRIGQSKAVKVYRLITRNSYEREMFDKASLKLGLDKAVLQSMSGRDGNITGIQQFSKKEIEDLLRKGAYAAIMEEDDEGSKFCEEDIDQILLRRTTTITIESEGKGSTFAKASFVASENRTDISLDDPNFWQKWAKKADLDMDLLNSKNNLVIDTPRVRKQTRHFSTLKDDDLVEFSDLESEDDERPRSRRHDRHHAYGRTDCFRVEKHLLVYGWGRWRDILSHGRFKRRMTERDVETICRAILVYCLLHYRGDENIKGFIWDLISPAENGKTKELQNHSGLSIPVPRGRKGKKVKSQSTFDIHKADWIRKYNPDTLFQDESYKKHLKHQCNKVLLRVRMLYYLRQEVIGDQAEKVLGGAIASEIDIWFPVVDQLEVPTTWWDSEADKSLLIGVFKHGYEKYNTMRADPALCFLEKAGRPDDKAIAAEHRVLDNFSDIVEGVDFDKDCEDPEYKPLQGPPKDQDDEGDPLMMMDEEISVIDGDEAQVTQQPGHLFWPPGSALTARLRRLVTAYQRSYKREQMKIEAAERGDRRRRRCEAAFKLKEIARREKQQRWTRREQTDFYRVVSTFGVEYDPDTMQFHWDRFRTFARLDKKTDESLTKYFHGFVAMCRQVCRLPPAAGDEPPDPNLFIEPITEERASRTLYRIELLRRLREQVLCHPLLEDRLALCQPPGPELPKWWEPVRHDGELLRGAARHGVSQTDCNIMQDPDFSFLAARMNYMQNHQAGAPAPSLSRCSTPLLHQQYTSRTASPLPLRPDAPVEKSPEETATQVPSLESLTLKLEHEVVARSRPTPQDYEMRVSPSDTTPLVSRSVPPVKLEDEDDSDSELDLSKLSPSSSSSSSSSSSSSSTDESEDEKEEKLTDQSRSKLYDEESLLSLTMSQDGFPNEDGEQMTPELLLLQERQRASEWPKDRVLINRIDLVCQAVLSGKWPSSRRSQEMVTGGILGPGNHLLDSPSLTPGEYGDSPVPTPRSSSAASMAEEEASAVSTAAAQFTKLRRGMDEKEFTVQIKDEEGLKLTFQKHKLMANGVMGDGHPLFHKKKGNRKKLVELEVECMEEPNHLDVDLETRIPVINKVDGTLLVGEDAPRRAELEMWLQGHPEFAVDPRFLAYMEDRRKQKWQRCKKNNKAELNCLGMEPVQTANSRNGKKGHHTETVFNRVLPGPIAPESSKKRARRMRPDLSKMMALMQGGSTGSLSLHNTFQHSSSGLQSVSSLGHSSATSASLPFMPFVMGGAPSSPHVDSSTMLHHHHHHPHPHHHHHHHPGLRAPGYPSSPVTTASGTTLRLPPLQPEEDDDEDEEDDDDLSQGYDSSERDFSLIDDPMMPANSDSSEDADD

Target: chromodomain helicase DNA-binding protein CHD8 (human (endogenous in stem cell-derived neurons)) (UniProt Q9HCK8)
Experiment: co-IP; anti-CHD8 antibody on protein G agarose beads; RIPA lysate of approximately 50 million human neurons grown glia-free, differentiated from stem cells for ten days; lysate incubated with beads for three hours; western blot for CHD8 and ELK1

- binding: binds
B1: ELK1 (protein, UniProt P19419 1-428)
chain: MDPSVTLWQFLLQLLREQGNGHIISWTSRDGGEFKLVDAEEVARLWGLRKNKTNMNYDKLSRALRYYYDKNIIRKVSGQKFVYKFVSYPEVAGCSTEDCPPQPEVSVTSTMPNVAPAAIHAAPGDTVSGKPGTPKGAGMAGPGGLARSSRNEYMRSGLYSTFTIQSLQPQPPPHPRPAVVLPSAAPAGAAAPPSGSRSTSPSPLEACLEAEEAGLPLQVILTPPEAPNLKSEELNVEPGLGRALPPEVKVEGPKEELEVAGERGFVPETTKAEPEVPPQEGVPARLPAVVMDTAGQAGGHAASSPEISQPQKGRKPRDLELPLSPSLLGGPGPERTPGSGSGSGLQAPGPALTPSLLPTHTLTPVLLTPSSLPPSIHFWSTLSPIAPRSPAKLSFQFPSSGSAQVHIPSISVDGLSTPVVLSPGPQKP
